Test results published in US20040053830A1.
Results are given in words; binding and its absence hold for the method and conditions named. Some results given as binding are weak or reduced against the parent protein; the word gives no strength.

Assays:
[1] = target: T1, Nucleobindin 1 (UniProt Q02818); assay: yeast two-hybrid, BCMP84 as bait
T1 sequence (looked up): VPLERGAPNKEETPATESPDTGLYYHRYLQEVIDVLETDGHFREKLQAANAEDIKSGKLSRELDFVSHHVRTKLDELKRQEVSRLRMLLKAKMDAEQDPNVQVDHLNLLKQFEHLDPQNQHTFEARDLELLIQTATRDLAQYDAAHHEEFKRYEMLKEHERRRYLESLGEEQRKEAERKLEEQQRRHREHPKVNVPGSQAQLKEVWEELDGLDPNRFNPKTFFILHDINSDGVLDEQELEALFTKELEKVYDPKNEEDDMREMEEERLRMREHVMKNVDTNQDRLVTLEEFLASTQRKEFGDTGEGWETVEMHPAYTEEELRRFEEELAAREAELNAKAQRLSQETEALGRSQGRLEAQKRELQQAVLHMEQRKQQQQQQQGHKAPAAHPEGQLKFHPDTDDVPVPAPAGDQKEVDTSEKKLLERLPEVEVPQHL

[2] = target: T2, sorcin protein (UniProt P30626); assay: yeast two-hybrid, BCMP84 as bait
T2 sequence (looked up): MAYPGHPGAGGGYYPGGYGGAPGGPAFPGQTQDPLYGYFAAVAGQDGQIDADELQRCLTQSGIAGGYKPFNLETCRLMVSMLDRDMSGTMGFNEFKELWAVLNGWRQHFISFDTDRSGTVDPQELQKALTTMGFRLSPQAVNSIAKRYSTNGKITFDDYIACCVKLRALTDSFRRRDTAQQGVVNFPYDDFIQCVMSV

binding [1]: binds
binding [2]: binds
B1: BCMP84 bait (yeast two-hybrid) (protein)
chain: MGQCRSANAEDAQEFSDVERAIETLIKNFHQYSVEGGKETLTPSELRDLVTQQLPHLMPSNCGLEEKIANLGSCNNSKLEFGSFWELIGEAAKSVKLERPVRGH
